Laboratory results from PubChem BioAssay AID2685 (National Center for Advancing Translational Sciences (NCATS), 2010).
Among all 320,000 compounds or so, about 2,100 (0.66%) were called active. This list was built around the results that the source calls inconclusive (neither active nor inactive); the mix of calls is not that of the screen. Calls follow the shape of the dose curve; as a rule, active = well fitted inhibition curve with a large enough effect in the signal ratio, with a control signal flat (not every such curve was filed as active); inconclusive = small, poorly fitted or top-dose-only effect, or effect the other way, or a change in a side signal; inactive = flat fitted curve, though single readings scatter; the % refers to the signal ratio. Potencies beside an inconclusive call are fits to weak or partial responses and may not hold up.

Test: qHTS Assay for Lipid Storage Modulators in Drosophila S3 Cells
Conditions: BODIPY lipid droplet fluorescence, 18-24 h, cells fed with added oleic acid; lipid storage change, negative = inhibition: at 46.1 µM (top of the series) unless noted
How it was run: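 Drosophila S3 cells got compounds at several concentrations plus oleic acid (400 uM solution). Laser-scanning cytometry with 488 nm excitation read lipid droplets at 500-530 nm and cells at 575-640 nm. Percent activity was relative to 20 uM Triacsin C.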
% is scaled to controls: 0 for no effect and ±100 for the full control effect; potency is read from the fitted curve at half-maximal effect.

| Compound | Potency | lipid storage change, negative = inhibition |
| --- | --- | --- |
| CC(NC(=O)Nc1ccc2c(c1)OCO2)C1CCCO1 (stereo not given) | inconclusive: 9.2 µM [activator, partial curve] |  |
| O=c1[nH]nc(-c2ccc(F)cc2)cc1Cc1ccccc1 |  | inconclusive: 61% |
| CN(C)C(=O)c1ccc(NC(=O)COC(=O)Cn2cc(C(F)(F)F)ccc2=O)cc1 | inconclusive: 29.1 µM [falling, single point] |  |
| O=C(NC(Cc1ccccc1)C(=O)O)OCc1ccccc1 (stereo not given) | inconclusive: 14.6 µM [falling, partial curve, poor fit] |  |
| COc1ccc(CNC(=O)c2ccc(CS(=O)(=O)c3ccc(C)cc3)o2)cc1 |  | inconclusive: 80.6% |
| O=C(Nc1nnc(SCc2ccccc2)s1)c1ccco1 |  | inconclusive: -1.11% |
| COCCOC(=O)c1c(C)n(C)c2ccc(OC(=O)c3c(OC)cccc3OC)cc12 |  | inconclusive: -16.1% |
| COc1ccc(-c2sc(NC(C)=O)nc2-c2ccccc2)cc1 | inconclusive: 4.61 µM [activator, full curve, poor fit] |  |
| N#C/C(=C\c1cccs1)c1nc2ccccc2[nH]1 |  | inconclusive: 20.6% |
| O=C1C(Cl)=C(Nc2ccccc2)C(=O)c2ccccc21 |  | inactive: -20.8% |
| Cc1ccsc1/C=N/N1CCN(Cc2ccccc2)CC1 |  | inconclusive: 16.4% |
| Cc1onc(-c2ccccc2)c1C(=O)Nc1nnc(C(C)(C)C)s1 | inconclusive: 29.1 µM [activator, single point] |  |
| COc1cccc(-c2nc3ccccc3c(=O)n2NC(=O)c2cccnc2Cl)c1 |  | inconclusive: 19.7% |
| O=C(NCCc1ccccc1Cl)C1CCC(=O)N(Cc2cccc(C(F)(F)F)c2)C1 (stereo not given) |  | inconclusive: -61.1% |
| O=C1N/C(=N/N=C/c2ccc(O)cc2)SC1Cc1ccccc1 (stereo not given) |  | inconclusive: 7.79% |
| C=CCn1c(SCC(=O)N2CCN(CCO)CC2)nc2sc3c(c2c1=O)CCC3 |  | inconclusive: -4.18% |
| COC(=O)C1=CN(Cc2ccc(OC)c(OC)c2)C=C(C(=O)OC)C1c1cccc(O)c1 |  | inconclusive: -4.36% |
| CCn1c(SCc2cccc(C(=O)O)c2)nnc1-c1ccccc1 | inconclusive: 0.0041 µM [falling, full curve, poor fit] |  |
| O=C1CCCCN1CCC(=O)N1CCCC(Nc2ccccc2)C1 (stereo not given) | inconclusive: 29.1 µM [falling, single point] |  |
| Clc1ccc(/C=N/Nc2nnc(-c3ncc[nH]3)c3ccccc23)cc1 |  | inconclusive: -20.5% |
| Cc1cc(C)nc(SCC(=O)NC2=NN=C(c3ccc(Br)cc3)CS2)n1 |  | inconclusive: -22.6% |
| CCc1ccc(C(=O)NC(=S)NCc2cccnc2)cc1 |  | inconclusive: -50.4% |
| O=C(COc1ccc(S(=O)(=O)N2CCOCC2)cc1)NCCCn1ccnc1 | inconclusive: 29.1 µM [falling, single point] |  |
| Cc1ccc(CN(C)C(=O)c2ccc(NS(=O)(=O)c3ccc4[nH]c(=O)[nH]c4c3)cc2)cc1 |  | inconclusive: -0.649% |
| O=C(Cn1cnc([N+](=O)[O-])c1)NCc1ccc(F)cc1 |  | inconclusive: -22.4% |
| Cc1cc(NS(=O)(=O)c2ccc(NC(=O)CSc3nc4ncccc4[nH]3)cc2)nc(C)n1 |  | inactive: -7.33% |
| COc1ccc(NC(=O)NCCc2c[nH]c3ccccc23)c(OC)c1 |  | inconclusive: 55.1% |

6 entries already listed, ordered by length of the SMILES, ascending.

| Compound | Potency | lipid storage change, negative = inhibition |
| --- | --- | --- |
| N#C/C(=C\c1cccs1)c1nc2ccccc2[nH]1 |  | inconclusive: 20.6% |
| O=C1C(Cl)=C(Nc2ccccc2)C(=O)c2ccccc21 |  | inactive: -20.8% |
| CCn1c(SCc2cccc(C(=O)O)c2)nnc1-c1ccccc1 | inconclusive: 0.0041 µM [falling, full curve, poor fit] |  |
| Cc1onc(-c2ccccc2)c1C(=O)Nc1nnc(C(C)(C)C)s1 | inconclusive: 29.1 µM [activator, single point] |  |
| Cc1cc(C)nc(SCC(=O)NC2=NN=C(c3ccc(Br)cc3)CS2)n1 |  | inconclusive: -22.6% |
| C=CCn1c(SCC(=O)N2CCN(CCO)CC2)nc2sc3c(c2c1=O)CCC3 |  | inconclusive: -4.18% |

(further entries)

| Compound | Potency | lipid storage change, negative = inhibition |
| --- | --- | --- |
| Cc1cc(C)c2cccc(N)c2n1 |  | inconclusive: 7.93% |
| CC(=O)NC(CC(=O)O)C(=O)O (stereo not given) |  | inconclusive: -3.16% |
| COc1ccccc1/C=C/C(=O)/C=C/c1ccccc1O | inconclusive: 32.6 µM [falling, single point] |  |
| Cc1cccc(C)c1NC(=O)C(Cl)=C(Cl)Cl |  | inconclusive: 2.43% |
| CC(C)OC(=O)c1cc2c(ccn2-c2ccc(F)cc2)n1CC(=O)N1CCN(C(=O)c2ccco2)CC1 |  | inconclusive: -69.8% |
| Cc1ccc(C)c(S(=O)(=O)n2cnc3ccccc32)c1 |  | inconclusive: -62.5% |
| CCc1ccc(OC(=O)CN2C(=O)c3ccccc3C2=O)cc1 |  | inconclusive: -6.97% |
| Cc1cccc(N2C(=O)N3[C@H](c4ccc(F)cc4)[C@@H]4C(=O)N(C5CCCCC5)C(=O)[C@@H]4[C@]3(Cc3ccccc3)C2=O)c1 |  | inconclusive: 19% |
| Cc1ccccc1N(CC(=O)Nc1ccc(S(=O)(=O)N2CCOCC2)cc1)S(C)(=O)=O |  | inconclusive: -20.3% |
| O=S(=O)(NCC1CCCO1)c1ccc(Br)cc1 (stereo not given) | inconclusive: 0.206 µM [activator, full curve, poor fit] |  |
| CCNc1nc(OC)nc(SCC(N)=O)n1 | inconclusive: 4.61 µM [falling, single point] |  |
| O=C1NCCn2ccc(=O)cc21 |  | inactive: 3.98% |
| CCn1c2ccccc2c2cc(/C=N/NC(=O)c3ccccc3)ccc21 |  | inconclusive: -29.8% |
| CCC1(C)Cc2[nH]c(=O)c(C#N)cc2CO1 (stereo not given) |  | inconclusive: 6.94% |
| CC(Nn1cnnc1)c1cc(Cl)ccc1O (stereo not given) |  | inconclusive: 22.2% |
| CCCOc1ccc(-c2c(C(=O)N/N=C/c3ccco3)nnn2-c2nonc2N)cc1 |  | inconclusive: -13.5% |
| CC1(C)COC(/C=C/c2cccc([N+](=O)[O-])c2)=N1 | inconclusive: 23.1 µM [falling, partial curve] |  |
| Cc1nn(Cc2c(F)c(F)c(F)c(F)c2F)c(C)c1NC(=O)c1ccnn1C |  | inconclusive: 95.1% |
| COc1ccc(NC(=O)N2CCN(S(C)(=O)=O)CC2)cc1OC | inconclusive: 25.9 µM [activator, partial curve] |  |
| COc1ccc(/C=C2\SC(=O)N(CC(=O)N(C)C3CCS(=O)(=O)C3)C2=O)cc1 (stereo not given) |  | inconclusive: 35% |
| CCOC(=O)C(C(=O)OCC)=C1OC(=O)c2ccccc21 |  | inconclusive: 5.59% |
| Cc1ccc(C2C=C(c3ccccc3)Nc3nc(N4C(=O)CCC4=O)nn32)cc1 (stereo not given) |  | inconclusive: -8.12% |
| Cc1cccc(NC(=O)c2ccc([N+](=O)[O-])o2)c1 | active: 13 µM |  |
| O=C(NCCn1ccc2ccccc21)c1ccc(S(=O)(=O)N2CCCCC2)cc1 |  | inconclusive: 67.6% |
| CC(=O)c1cn(CC(=O)Nc2ccccc2Cl)c2ccccc12 |  | inconclusive: -36.3% |
| CCCCC(=O)Nc1ncc2c(n1)CC(C)(C)CC2=O |  | inconclusive: -48.5% [at 0.0737 µM] |
| C[C@@H](CN=[N+]=[N-])CN1CC[C@H](C(C)(C)C)CCC1=O | inconclusive: 29.1 µM [falling, single point] |  |

| Compound | Potency | lipid storage change, negative = inhibition |
| --- | --- | --- |
| C/C(O)=C(/C=Nc1ccccc1)C(=O)Nc1ccccc1 |  | inconclusive: 48.2% |
| COc1ccc(Cl)cc1S(=O)(=O)N1CCN(C)CC1 |  | inconclusive: 8.41% |
| CC(=O)c1ccc(NC(=O)[C@@]2(CC(=O)O)CC(/C=C/c3ccccc3)=NO2)cc1 |  | inconclusive: -42.4% |
| Cn1cc(/C=N\O)nc2c(=O)n(-c3ccccc3)c(=O)nc1-2 | inconclusive: 8.2 µM [falling, partial curve, poor fit] |  |
| COc1ccccc1C(=O)N1CCc2ccccc21 |  | inconclusive: 12.9% |
| COc1ccc(S(=O)(=O)N2CCC(c3nc4ccccc4[nH]3)CC2)cc1 |  | inconclusive: 27.5% |
| CCCCCC1CC(CC(=O)Nc2ccc([N+](=O)[O-])cc2)OC1=O (stereo not given) |  | inconclusive: 9.2% |
| CO/N=C/c1ccc(Oc2ccc(C)cc2)c([N+](=O)[O-])c1 | inconclusive: 2.06 µM [activator, full curve, poor fit] |  |
| COc1ccc(N/C(C)=C2/C(=O)C(=O)N(CCO)C2c2ccc(Br)cc2)cc1 (stereo not given) |  | inconclusive: 12.9% |
| COc1ccccc1NC(=O)Nc1nnc(Cc2ccc(F)cc2)s1 |  | inconclusive: 39.9% |
| COc1ccc(-c2ccc3ccccc3n2)cc1 |  | inactive: -22% |
| COC(=O)c1ccc(-n2c(C)cc(/C=N/n3cnnc3)c2C)cc1 | inconclusive: 0.116 µM [falling, single point] |  |
| COc1cc(/C=N/NC(=O)C(N)=O)cc(OC)c1O |  | inconclusive: 6.4% |
| CCN(CC(=O)NCc1ccc(Cl)cc1)C(=O)c1cc2ccccc2o1 |  | inconclusive: 73% |
| Cc1nn(-c2ccccc2)c(N)c1Sc1cccc([N+](=O)[O-])c1 |  | inconclusive: 27.6% |
| O=C1CC(Sc2nnnn2-c2ccccc2)C(=O)N1c1cccc(Cl)c1 (stereo not given) | inconclusive: 18.4 µM [cytotoxic, single point] |  |
| O=C(NCCN1CCOCC1)C1CCN(c2nc3ccccc3o2)CC1 |  | inconclusive: 12.4% |
| O=C1N=C(N2CCCCC2)SC1=C1CCCCC1 |  | inconclusive: 9.74% |
| CC(=O)OC1c2ccccc2C(=O)N1c1ccccc1C (stereo not given) |  | inconclusive: 26.5% |
| Cc1ccc(Nc2cc(C)nc3nc(C)nn23)cc1 |  | inconclusive: 3.47% |
| Cc1cc(NC(=O)CSc2ccc3nnc(-c4cccnc4)n3n2)no1 | inconclusive: 0.116 µM [activator, full curve, poor fit] |  |
| COc1ccc(-n2ncc3c2CC(C)(C)CC3NC(=O)CCC2=NNC(=O)CC2)cc1 (stereo not given) |  | inconclusive: 231% |
| Cc1ccnc(NC(=O)C2CCN(S(=O)(=O)c3cccc(C(F)(F)F)c3)CC2)c1 |  | inconclusive: -8.3% |
| COC(=O)C1CC(O)CN1S(=O)(=O)c1cccs1 (stereo not given) | inconclusive: 0.291 µM [rising, partial curve, poor fit] |  |
| COc1ccccc1NCC(=O)Nc1cc(S(=O)(=O)N2CCOCC2)ccc1N1CCOCC1 |  | inconclusive: 33.6% |
| COc1ccc(/C=C(\C#N)C(=O)OCC(=O)Nc2ccc(C(C)(C)C)cc2)cc1 |  | inconclusive: -38.7% |
